The list shows a part of the results.

Chains of the proteins cited; added tags and fusions are not shown. Lines headed by an entry give the natural chain unless they say otherwise; changes in a name come on top.
UniProt P27449, whole entry, looked up: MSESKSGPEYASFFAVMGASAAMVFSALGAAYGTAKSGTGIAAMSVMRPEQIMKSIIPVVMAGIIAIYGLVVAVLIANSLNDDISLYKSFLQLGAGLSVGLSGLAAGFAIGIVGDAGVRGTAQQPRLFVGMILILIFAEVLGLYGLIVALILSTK
UniProt P14415, whole entry, looked up: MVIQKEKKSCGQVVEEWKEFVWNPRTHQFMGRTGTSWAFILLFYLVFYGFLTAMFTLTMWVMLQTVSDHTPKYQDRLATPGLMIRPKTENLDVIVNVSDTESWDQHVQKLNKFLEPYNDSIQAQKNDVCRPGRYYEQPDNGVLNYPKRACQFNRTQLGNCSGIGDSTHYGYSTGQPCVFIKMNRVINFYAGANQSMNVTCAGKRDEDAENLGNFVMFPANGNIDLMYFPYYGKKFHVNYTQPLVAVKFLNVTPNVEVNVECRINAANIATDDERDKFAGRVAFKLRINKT
UniProt Q8NHH9: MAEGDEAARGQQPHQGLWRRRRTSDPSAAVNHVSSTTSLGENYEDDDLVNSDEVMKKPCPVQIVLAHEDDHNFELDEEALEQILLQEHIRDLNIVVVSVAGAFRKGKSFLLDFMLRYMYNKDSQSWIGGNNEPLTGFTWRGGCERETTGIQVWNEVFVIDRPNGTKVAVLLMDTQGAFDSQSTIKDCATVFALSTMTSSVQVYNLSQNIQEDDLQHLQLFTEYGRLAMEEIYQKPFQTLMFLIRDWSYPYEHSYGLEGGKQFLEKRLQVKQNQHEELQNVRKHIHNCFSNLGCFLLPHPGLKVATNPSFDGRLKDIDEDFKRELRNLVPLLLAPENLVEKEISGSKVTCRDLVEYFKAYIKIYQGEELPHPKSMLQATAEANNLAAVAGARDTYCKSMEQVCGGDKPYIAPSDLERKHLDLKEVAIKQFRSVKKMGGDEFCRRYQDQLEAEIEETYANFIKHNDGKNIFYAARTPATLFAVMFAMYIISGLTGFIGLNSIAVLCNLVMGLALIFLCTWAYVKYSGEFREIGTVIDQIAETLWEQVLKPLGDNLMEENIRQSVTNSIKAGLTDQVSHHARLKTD
UniProt Q9NWX5: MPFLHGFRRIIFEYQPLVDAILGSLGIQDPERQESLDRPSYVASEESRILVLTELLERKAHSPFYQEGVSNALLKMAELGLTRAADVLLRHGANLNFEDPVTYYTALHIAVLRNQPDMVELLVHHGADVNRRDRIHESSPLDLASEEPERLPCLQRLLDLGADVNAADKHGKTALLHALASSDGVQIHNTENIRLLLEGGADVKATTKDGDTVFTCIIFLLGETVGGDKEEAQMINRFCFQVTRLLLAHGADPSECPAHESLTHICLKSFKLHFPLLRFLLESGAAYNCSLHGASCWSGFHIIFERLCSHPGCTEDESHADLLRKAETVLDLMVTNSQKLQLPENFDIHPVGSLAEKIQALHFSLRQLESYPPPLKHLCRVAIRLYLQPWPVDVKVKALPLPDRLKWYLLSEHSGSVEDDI
UniProt P15289: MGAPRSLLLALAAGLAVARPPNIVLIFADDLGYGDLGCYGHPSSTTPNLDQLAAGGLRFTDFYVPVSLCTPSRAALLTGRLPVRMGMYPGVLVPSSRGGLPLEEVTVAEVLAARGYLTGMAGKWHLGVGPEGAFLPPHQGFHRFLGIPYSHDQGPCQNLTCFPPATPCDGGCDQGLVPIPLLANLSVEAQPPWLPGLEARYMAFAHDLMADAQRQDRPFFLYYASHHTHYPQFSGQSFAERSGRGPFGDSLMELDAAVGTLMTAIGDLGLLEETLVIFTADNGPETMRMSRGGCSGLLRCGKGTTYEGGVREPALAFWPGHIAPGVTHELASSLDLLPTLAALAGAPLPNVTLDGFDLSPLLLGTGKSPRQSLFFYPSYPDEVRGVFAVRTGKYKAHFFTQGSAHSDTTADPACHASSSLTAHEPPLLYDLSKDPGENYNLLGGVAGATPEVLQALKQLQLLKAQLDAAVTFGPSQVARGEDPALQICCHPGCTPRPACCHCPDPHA
UniProt Q8IXJ9: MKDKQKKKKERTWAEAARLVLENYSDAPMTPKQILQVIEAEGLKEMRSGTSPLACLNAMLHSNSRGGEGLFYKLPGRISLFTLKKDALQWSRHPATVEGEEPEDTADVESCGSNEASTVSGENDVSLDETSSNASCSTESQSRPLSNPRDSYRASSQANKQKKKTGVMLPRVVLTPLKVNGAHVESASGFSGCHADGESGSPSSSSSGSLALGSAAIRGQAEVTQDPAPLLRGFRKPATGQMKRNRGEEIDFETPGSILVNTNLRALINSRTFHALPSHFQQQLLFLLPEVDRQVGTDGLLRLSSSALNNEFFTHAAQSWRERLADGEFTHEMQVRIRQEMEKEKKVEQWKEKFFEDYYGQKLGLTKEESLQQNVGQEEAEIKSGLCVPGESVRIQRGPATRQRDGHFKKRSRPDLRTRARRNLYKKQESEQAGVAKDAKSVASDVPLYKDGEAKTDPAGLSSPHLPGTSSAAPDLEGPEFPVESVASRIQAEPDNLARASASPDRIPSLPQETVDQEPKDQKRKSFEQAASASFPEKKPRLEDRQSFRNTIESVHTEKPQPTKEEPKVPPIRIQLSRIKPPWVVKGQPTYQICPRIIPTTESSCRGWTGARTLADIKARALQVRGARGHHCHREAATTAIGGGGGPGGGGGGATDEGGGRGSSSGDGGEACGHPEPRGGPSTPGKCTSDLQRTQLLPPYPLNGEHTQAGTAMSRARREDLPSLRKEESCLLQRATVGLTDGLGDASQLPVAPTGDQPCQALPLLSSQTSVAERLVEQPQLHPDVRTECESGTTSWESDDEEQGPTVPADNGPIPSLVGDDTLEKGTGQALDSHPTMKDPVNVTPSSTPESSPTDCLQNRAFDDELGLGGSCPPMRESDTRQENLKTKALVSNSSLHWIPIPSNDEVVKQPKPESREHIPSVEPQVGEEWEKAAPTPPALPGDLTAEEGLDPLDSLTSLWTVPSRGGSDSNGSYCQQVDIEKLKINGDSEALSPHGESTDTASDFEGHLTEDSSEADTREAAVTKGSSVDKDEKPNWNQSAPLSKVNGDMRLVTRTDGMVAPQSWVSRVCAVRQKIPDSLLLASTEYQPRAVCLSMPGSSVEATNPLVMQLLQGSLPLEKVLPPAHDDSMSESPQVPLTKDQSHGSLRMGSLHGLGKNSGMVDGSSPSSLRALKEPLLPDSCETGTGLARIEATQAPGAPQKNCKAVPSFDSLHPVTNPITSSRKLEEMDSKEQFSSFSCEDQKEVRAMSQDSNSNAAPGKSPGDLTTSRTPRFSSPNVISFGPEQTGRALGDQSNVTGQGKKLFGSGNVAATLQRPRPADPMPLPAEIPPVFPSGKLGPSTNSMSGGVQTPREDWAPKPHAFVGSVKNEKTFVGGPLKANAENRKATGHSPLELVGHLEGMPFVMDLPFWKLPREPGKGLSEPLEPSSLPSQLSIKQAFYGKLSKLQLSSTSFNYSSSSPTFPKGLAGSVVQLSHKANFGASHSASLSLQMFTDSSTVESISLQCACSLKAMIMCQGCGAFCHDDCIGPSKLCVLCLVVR
UniProt Q9Y689: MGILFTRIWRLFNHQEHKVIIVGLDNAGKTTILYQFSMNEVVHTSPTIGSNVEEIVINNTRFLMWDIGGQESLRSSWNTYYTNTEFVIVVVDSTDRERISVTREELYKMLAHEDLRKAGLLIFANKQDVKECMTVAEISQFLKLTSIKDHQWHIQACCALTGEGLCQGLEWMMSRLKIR
UniProt P17544: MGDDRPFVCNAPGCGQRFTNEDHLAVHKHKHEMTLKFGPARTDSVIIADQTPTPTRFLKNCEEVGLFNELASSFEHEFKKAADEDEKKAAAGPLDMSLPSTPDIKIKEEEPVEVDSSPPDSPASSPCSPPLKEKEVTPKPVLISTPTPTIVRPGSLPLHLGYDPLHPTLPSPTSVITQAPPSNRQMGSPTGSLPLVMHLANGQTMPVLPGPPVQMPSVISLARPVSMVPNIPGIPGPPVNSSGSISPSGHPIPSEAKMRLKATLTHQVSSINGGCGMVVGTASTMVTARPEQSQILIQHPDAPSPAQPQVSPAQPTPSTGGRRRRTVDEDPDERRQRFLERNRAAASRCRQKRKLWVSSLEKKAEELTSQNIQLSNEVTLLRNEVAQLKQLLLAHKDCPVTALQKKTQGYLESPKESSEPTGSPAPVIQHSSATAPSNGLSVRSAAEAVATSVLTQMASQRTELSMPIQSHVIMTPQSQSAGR
UniProt P00966: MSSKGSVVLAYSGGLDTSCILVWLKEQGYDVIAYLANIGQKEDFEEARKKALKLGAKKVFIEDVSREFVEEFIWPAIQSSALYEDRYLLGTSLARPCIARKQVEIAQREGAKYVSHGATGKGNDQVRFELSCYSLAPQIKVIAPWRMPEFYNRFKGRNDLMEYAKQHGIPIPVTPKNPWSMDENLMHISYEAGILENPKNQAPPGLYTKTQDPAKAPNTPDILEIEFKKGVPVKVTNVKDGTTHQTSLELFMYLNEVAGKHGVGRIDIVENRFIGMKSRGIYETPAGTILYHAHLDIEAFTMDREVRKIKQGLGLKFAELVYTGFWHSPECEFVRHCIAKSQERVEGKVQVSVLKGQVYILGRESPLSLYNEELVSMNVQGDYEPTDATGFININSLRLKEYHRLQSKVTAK
UniProt P98194: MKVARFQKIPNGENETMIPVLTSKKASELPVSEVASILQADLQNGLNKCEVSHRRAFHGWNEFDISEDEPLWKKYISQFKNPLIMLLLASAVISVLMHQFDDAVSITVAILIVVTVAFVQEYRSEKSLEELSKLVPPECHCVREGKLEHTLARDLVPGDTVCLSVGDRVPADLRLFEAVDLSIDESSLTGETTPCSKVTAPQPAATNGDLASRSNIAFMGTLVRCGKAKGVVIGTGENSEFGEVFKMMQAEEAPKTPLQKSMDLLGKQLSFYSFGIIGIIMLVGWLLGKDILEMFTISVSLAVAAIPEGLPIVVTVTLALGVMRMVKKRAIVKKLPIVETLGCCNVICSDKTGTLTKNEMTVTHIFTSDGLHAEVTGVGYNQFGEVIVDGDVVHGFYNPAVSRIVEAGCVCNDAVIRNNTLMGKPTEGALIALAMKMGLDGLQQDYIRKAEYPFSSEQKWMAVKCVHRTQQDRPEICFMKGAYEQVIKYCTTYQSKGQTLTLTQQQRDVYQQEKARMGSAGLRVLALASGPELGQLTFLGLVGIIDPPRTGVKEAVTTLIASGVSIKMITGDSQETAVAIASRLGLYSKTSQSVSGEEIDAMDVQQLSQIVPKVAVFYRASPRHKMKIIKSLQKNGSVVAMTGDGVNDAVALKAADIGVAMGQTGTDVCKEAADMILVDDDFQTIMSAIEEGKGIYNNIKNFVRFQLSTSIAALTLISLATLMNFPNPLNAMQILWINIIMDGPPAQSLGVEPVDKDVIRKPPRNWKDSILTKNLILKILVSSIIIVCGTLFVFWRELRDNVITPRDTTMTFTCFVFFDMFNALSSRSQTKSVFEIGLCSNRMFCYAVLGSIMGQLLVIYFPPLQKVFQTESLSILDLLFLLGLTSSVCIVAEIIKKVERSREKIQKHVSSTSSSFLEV
UniProt O94817, whole entry, looked up: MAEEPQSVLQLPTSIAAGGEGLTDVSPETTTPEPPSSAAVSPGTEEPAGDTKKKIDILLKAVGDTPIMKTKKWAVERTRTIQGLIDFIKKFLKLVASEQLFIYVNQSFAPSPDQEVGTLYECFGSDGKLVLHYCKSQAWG
UniProt O95260: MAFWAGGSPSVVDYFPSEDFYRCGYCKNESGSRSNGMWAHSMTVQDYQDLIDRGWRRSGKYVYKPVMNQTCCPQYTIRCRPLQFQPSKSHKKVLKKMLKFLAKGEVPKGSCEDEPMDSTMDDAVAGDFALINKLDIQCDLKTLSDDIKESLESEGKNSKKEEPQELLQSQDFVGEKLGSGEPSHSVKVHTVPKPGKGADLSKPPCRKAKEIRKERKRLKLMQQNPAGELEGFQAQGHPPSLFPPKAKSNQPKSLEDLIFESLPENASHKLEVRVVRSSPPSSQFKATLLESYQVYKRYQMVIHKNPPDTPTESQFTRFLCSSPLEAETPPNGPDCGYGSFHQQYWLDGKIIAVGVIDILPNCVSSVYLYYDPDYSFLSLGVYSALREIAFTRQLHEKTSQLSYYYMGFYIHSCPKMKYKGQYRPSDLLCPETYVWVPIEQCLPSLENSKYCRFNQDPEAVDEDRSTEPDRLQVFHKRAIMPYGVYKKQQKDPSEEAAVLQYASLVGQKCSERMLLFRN
UniProt Q9NVP2, whole entry, looked up: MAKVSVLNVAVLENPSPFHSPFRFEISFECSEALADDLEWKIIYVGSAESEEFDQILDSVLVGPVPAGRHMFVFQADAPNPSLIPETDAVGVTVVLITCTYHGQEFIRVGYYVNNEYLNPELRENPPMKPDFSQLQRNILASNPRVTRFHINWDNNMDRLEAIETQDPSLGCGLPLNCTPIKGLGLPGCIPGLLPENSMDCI
UniProt Q9H0Y0: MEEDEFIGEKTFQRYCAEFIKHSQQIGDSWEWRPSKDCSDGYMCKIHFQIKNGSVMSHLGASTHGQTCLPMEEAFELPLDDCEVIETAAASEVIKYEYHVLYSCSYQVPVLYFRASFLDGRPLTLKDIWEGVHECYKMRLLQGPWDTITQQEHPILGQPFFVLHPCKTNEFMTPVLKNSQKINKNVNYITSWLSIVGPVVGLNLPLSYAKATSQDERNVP

Compound in one assay: CC1=CC=C(C=C1)SC2=C3C=C(SC3=CN=C2)C(=O)N
In words: log2 fold change, soluble protein after heating vs DMSO (PISA); higher = thermal stabilisation; K562 cells, 10 uM, 30 min; active = over 0.2 and 3.5 SD of the protein, either way, in both replicates (recomputed). Summed up:
(§1)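 Thermal stability values are relative to control samples and come from duplicates. They are expressed as log2 fold changes. For measurement, K562 cells (2×10^6 cells/mL) received 10 μM compound for 30 min, and aliquots were heated for 3 min over 48°C-58°C, pooled, and extracted at 4°C in PBS with 0.5% NP-40. Soluble protein, the supernatant after 21,000xg for 90 min, was quantified by TMTpro 16plex LC-MS/MS with equalised channel sums.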
With ATP6V0C (UniProt P27449), the log2 fold change was inactive: 0.023.

For the target ATPSCKMT (UniProt Q6P4H8), the log2 fold change was inactive: 0.088.

As for ATP1B2 (UniProt P14415), the log2 fold change is inactive: 0.23.

Consider ATL2 (UniProt Q8NHH9), for which the log2 fold change is inactive: -0.013.

With ATF3 (UniProt P18847), the log2 fold change was inactive: -0.151.

Turning to ASB6 (UniProt Q9NWX5), the log2 fold change is inactive: 0.117.

In the case of ARL5B (UniProt Q96KC2), the log2 fold change was inactive: -0.079.

Consider ARPIN isoform 2 (UniProt Q7Z6K5), for which the log2 fold change is inactive: 0.009.

Consider ARSA (UniProt P15289), for which the log2 fold change is inactive: -0.136.

Consider ASXL1 (UniProt Q8IXJ9), for which the log2 fold change was inactive: -0.095.

ARRDC1 (UniProt Q8N5I2): the log2 fold change was inactive: 0.071.

For the target ARL5A (UniProt Q9Y689), the log2 fold change is inactive: 0.033.

ATF7 isoform 6 (UniProt P17544): the log2 fold change was inactive: -0.155.

On to ATP1B1 (UniProt P05026), for which the log2 fold change is inactive: 0.061.

As for ASS1 (UniProt P00966), the log2 fold change was inactive: -0.06.

As for ATG14 (UniProt Q6ZNE5), the log2 fold change was inactive: 0.14.

Take ATP2C1 isoform 3 (UniProt P98194): the log2 fold change was inactive: -0.009.

As to ATG12 (UniProt O94817), the log2 fold change is inactive: 0.017.

ATP5F1B (UniProt F8W0P7): the log2 fold change was inactive: 0.027.

As to ATE1 (UniProt O95260), the log2 fold change is inactive: -0.119.

For ATP2B2 (UniProt Q01814), the log2 fold change is inactive: 0.098.

For the target ARRB1 isoform 2 (UniProt P49407), the log2 fold change was inactive: -0.1.

For the target ASF1B (UniProt Q9NVP2), the log2 fold change was inactive: 0.

Take ATP5F1B (UniProt H0YI37): the log2 fold change is inactive: -0.314.

With ATF1 (UniProt P18846), the log2 fold change was inactive: -0.113.

Compound in another assay: CC1=NC(=CC=C1)C2=C(N=C(N2)C(C)(C)C)C3=CC4=NC=CN=C4C=C3
The description is as above. The essentials: as §1
Regarding ATP1B2 (UniProt P14415), the log2 fold change was inactive: 0.091.

As for ARSK (UniProt Q6UWY0), the log2 fold change is inactive: -0.023.

ATL2 (UniProt Q8NHH9): the log2 fold change is inactive: 0.029.

ASB6 (UniProt Q9NWX5): the log2 fold change was inactive: -0.175.

For the target ARPIN isoform 2 (UniProt Q7Z6K5), the log2 fold change was inactive: 0.141.

For ARSA (UniProt P15289), the log2 fold change is inactive: 0.079.

As for ARL5A (UniProt Q9Y689), the log2 fold change was inactive: 0.017.

Turning to ATF7 isoform 6 (UniProt P17544), the log2 fold change is inactive: -0.085.

ATF7IP isoform 4 (UniProt Q6VMQ6): the log2 fold change was inactive: -0.078.

With ATP1B1 (UniProt P05026), the log2 fold change is inactive: 0.037.

As for ASCC2 (UniProt Q9H1I8), the log2 fold change is inactive: -0.046.

With ATG12 (UniProt O94817), the log2 fold change was inactive: 0.039.

As to ATP5F1B (UniProt F8W0P7), the log2 fold change is inactive: -0.012.

On to ATE1 (UniProt O95260), for which the log2 fold change was inactive: 0.049.

As for ASNSD1 (UniProt Q9NWL6), the log2 fold change was inactive: -0.068.

With ARRB1 isoform 2 (UniProt P49407), the log2 fold change is inactive: -0.015.

Consider ASF1B (UniProt Q9NVP2), for which the log2 fold change was inactive: -0.075.

ATG2A (UniProt Q2TAZ0): the log2 fold change was inactive: 0.025.

On to ARL13B (UniProt Q3SXY8), for which the log2 fold change is inactive: 0.053.

Compound in the next assay: CCCCN(Cc1ccc(C(=O)NO)cc1)C(=O)Nc1ccccc1 [Nexturastat A]
The description is as above. The essentials:
as §1
With ATP6V0C (UniProt P27449), the log2 fold change is inactive: -0.074.

In the case of ATPSCKMT (UniProt Q6P4H8), the log2 fold change is inactive: -0.173.

Turning to ATP1B2 (UniProt P14415), the log2 fold change was inactive: 0.026.

In the case of ARSK (UniProt Q6UWY0), the log2 fold change was inactive: -0.217.

For ATL2 (UniProt Q8NHH9), the log2 fold change is inactive: 0.037.

Take ATG10 (UniProt Q9H0Y0): the log2 fold change was inactive: -0.038.

In the case of ATF3 (UniProt P18847), the log2 fold change is inactive: 0.011.

On to ASB6 (UniProt Q9NWX5), for which the log2 fold change was inactive: 0.125.

ARL5B (UniProt Q96KC2): the log2 fold change is inactive: -0.06.

For the target ARSA (UniProt P15289), the log2 fold change is inactive: 0.029.

For the target ASXL1 (UniProt Q8IXJ9), the log2 fold change is inactive: -0.211.

With ARRDC1 (UniProt Q8N5I2), the log2 fold change was inactive: 0.021.

For the target ARL5A (UniProt Q9Y689), the log2 fold change was inactive: -0.019.

As to ATF7 isoform 6 (UniProt P17544), the log2 fold change was inactive: -0.042.

Regarding ATF7IP isoform 4 (UniProt Q6VMQ6), the log2 fold change was inactive: 0.328.

For ASS1 (UniProt P00966), the log2 fold change was inactive: 0.023.

On to ASCC2 (UniProt Q9H1I8), for which the log2 fold change was inactive: 0.054.

Consider ATG12 (UniProt O94817), for which the log2 fold change is inactive: -0.099.

As for ATP5F1B (UniProt F8W0P7), the log2 fold change is inactive: -0.118.

ATE1 (UniProt O95260): the log2 fold change is inactive: 0.095.

As to ASNSD1 (UniProt Q9NWL6), the log2 fold change is inactive: -0.202.

In the case of ASF1B (UniProt Q9NVP2), the log2 fold change is inactive: 0.281.

Take ATG2A (UniProt Q2TAZ0): the log2 fold change is inactive: 0.256.

For the target ATP5F1B (UniProt H0YI37), the log2 fold change is inactive: 0.159.

ARL13B (UniProt Q3SXY8): the log2 fold change is inactive: 0.115.

Consider ATF1 (UniProt P18846), for which the log2 fold change is inactive: -0.026.

Source of the values: the supplement of paper PMC10849652.
